Assay results reported in PubChem BioAssay AID330 (DTP/NCI, 2004).
The list does not hold the whole screen: it gathers tests that were run many times, whatever their T/C, doses with no T/C, and many T/C values between a quarter and a half above the control. Further doses and runs are listed elsewhere. T/C gives the treated animals as a percentage of the vehicle group. Some entries give survivors of the animals treated and no T/C: the source files T/C as zero there, which appears to mark a toxic dose or a test without result, not a measured value. Some doses without a T/C left all or most animals alive at the check, yet need not have been tolerated: survival well below the control is almost never listed, so the zero probably covers shortened survival too. Survivors were counted at the toxicity check, usually on the fifth day, unless a day is given; later deaths do not show. Schedules are NCI's codes, taken here to give the interval after Q, in days (D) or hours (H), and the number of doses after X. Where survival is the endpoint, the PubChem record calls one and a half times the control and up active, and a quarter to a half above the control has no call in these data; cut-offs in other NCI protocols can differ. Some T/C values are followed by the survivors on the day toxicity was checked, most often the fifth; where none is given, no animal had died by that day.

Test system: P388 leukemia ip, CD2F1 mice, survival T/C
Assay: NCI In Vivo Anticancer Drug Screen. Data for tumor model P388 Leukemia (intraperitoneal) in CD2F1 (CDF1) mice
Conditions: T/C endpoint: median survival time, higher T/C = longer survival
[1] = dose: 100.0 mg/kg/injection, schedule: Q04DX003 (ip), vehicle: saline with Tween-80
[2] = dose: 200.0 mg/kg/injection, schedule: Q04DX003 (ip), vehicle: saline with Tween-80
[3] = dose: 120.0 mg/kg/injection, schedule: Q01DX005 (ip), vehicle: saline with Tween-80
[4] = dose: 240.0 mg/kg/injection, schedule: Q01DX005 (ip), vehicle: saline with Tween-80
[5] = dose: 100.0 mg/kg/injection, schedule: Q01DX005 (ip), vehicle: Klucel (hydroxypropylcellulose) (HPC)
[6] = dose: 200.0 mg/kg/injection, schedule: Q01DX005 (ip), vehicle: Klucel (hydroxypropylcellulose) (HPC)
[7] = dose: 240.0 mg/kg/injection, schedule: Q01DX005 (ip), vehicle: Klucel (hydroxypropylcellulose) (HPC)
[8] = dose: 200.0 mg/kg/injection, schedule: Q01DX009 (ip), vehicle: saline
[9] = dose: 200.0 mg/kg/injection, schedule: Q01DX005 (ip), vehicle: saline with Tween-80
[10] = dose: 100.0 mg/kg/injection, schedule: Q01DX009 (ip), vehicle: saline
[11] = dose: 400.0 mg/kg/injection, schedule: Q04DX003 (ip), vehicle: saline with Tween-80
[12] = dose: 50.0 mg/kg/injection, schedule: Q01DX005 (ip), vehicle: saline with Tween-80

`Cc1ccc2nc(NC(=O)N(CCCl)N=O)sc2c1` was tested, and the T/C [1] was 127 % of control, the T/C [2] was 145 % of control and the T/C (dose: 264.0 mg/kg/injection, schedule: Q04DX003 (ip), vehicle: saline sonified) was 130 % of control. The T/C (dose: 400.0 mg/kg/injection, schedule: Q04DX003 (ip), vehicle: saline sonified) was 135 % of control and the survivor count (dose: 600.0 mg/kg/injection, schedule: Q04DX003 (ip), vehicle: saline sonified) was 1 of 6.
For `O=C(C=C(C(F)(F)F)C(F)(F)F)c1ccccc1Cl`, the T/C (dose: 25.0 mg/kg/injection, schedule: Q01DX009 (ip), vehicle: saline with Tween-80) was 145 % of control [5 of 6 alive] and the survivor count (dose: 50.0 mg/kg/injection, schedule: Q04DX003 (ip), vehicle: saline with Tween-80) was 6 of 6.
For `NC(=O)c1cc([N+](=O)[O-])cnc1Sc1ncn[nH]1`, the survivor count (dose: 200.0 mg/kg/injection, schedule: Q01DX009 (ip), vehicle: Klucel (hydroxypropylcellulose) (HPC)) was 3 of 6.
In the case of `CC(C)(C)[OH+][O-].[O-]c1ccc(Cl)cc1C=Nc1ccc(Cl)cc1[O-].[O]=[V]`, the survivor count [3] is reported as 0 of 6 and the survivor count [4] is reported as 0 of 6.
In the case of `CC1=C/C(O)CC(=O)Cc2nc(co2)C(=O)N2CCC=C2C(=O)OC(C(C)C)C(C)/C=C\C(=O)NC/C=C\1` (centres undefined), the T/C [5] is reported as 126 % of control.
For `O=C(O)/C(Br)=C(/Br)C(=O)O`, the survivor count (dose: 400.0 mg/kg/injection, schedule: Q04DX002 (ip), vehicle: saline with Tween-80) was 5 of 6.
`COc1cc(NN=C(C#N)C#N)c(OC)cc1Cl` was tested, and the survivor count (dose: 50.0 mg/kg/injection, schedule: Q01DX005 (ip), vehicle: Klucel (hydroxypropylcellulose) (HPC)) was 2 of 5, the survivor count [5] was 0 of 5 and the survivor count [6] was 0 of 5.
With `CNC(=O)SC1=NS(=O)(=O)c2ccc(Cl)cc2N1` the survivor count [7] was 0 of 6.
`OCC(O)C(O)C(O)/C=N\Nc1ccccc1` (centres undefined) was tested, and the survivor count [8] was 6 of 6.
In the case of `CC(C)COC(=O)N(CCCl)N=O`, the survivor count (dose: 10.0 mg/kg/injection, schedule: Q01DX009 (ip), vehicle: saline with Tween-80) is reported as 6 of 6, the survivor count (dose: 20.0 mg/kg/injection, schedule: Q01DX001 (ip), vehicle: saline with Tween-80) is reported as 6 of 6 and the survivor count (dose: 20.0 mg/kg/injection, schedule: Q01DX009 (ip), vehicle: saline with Tween-80) is reported as 1 of 6. For the same compound, the survivor count (dose: 40.0 mg/kg/injection, schedule: Q01DX001 (ip), vehicle: saline with Tween-80) was 2 of 6.
With `COC(=O)c1nc(N)nc(C(=O)OC)c1C(=O)c1cccc2ccccc12` the survivor count [7] was 0 of 6.
`COC(=O)C1C2CC3c4[nH]c5cc(OC)ccc5c4CCN3CC2CC(O)C1OC` (centres undefined) was tested, and the survivor count [6] was 0 of 6.
`Cc1cc(Cl)ccc1NC(=O)NC(C)(C)COC(=O)Nc1cccc(Cl)c1` was tested, and the survivor count (dose: 60.0 mg/kg/injection, schedule: Q01DX005 (ip), vehicle: saline with Tween-80) was 6 of 6 and the survivor count [4] was 6 of 6.
With `NC1[N-]C(C2CCCC[N-]2)CC2CCCCC21.O=[N+]([O-])O.O=[N+]([O-])O.[Cu+2]` (centres undefined) the survivor count (dose: 25.0 mg/kg/injection, schedule: Q04DX002 (ip), vehicle: suspension in saline) was 1 of 6, the survivor count (dose: 100.0 mg/kg/injection, schedule: Q04DX002 (ip), vehicle: suspension in saline) was 0 of 6 and the survivor count (dose: 200.0 mg/kg/injection, schedule: Q04DX002 (ip), vehicle: suspension in saline) was 0 of 6. The survivor count (dose: 400.0 mg/kg/injection, schedule: Q04DX002 (ip), vehicle: suspension in saline) was 0 of 6.
With `CCN(CC)CCN(CC)c1ccccc1` the survivor count [9] was 0 of 5.
For `CN(C)P1(=O)OCC(C(C)(C)C)CN1c1ccccc1` (centres undefined), the survivor count (dose: 400.0 mg/kg/injection, schedule: Q04DX003 (ip), vehicle: Klucel (hydroxypropylcellulose) (HPC)) was 0 of 6.
`CC(=O)[O][Hg][O]C(C)=O` was tested, and the survivor count (dose: 2.5 mg/kg/injection, schedule: Q01DX009 (ip), vehicle: saline with Tween-80) was 4 of 6 and the survivor count (dose: 5.0 mg/kg/injection, schedule: Q01DX009 (ip), vehicle: saline with Tween-80) was 0 of 6.
With `ClC(Cl)(Cl)C(=NN=C(C(Cl)(Cl)Cl)C(Cl)(Cl)Cl)C(Cl)(Cl)Cl` the survivor count [3] was 0 of 6 and the survivor count [4] was 0 of 6.
For `C1CCC(N2CCOCC2)CC1`, the survivor count [10] was 0 of 6 and the survivor count [8] was 0 of 6.
In the case of `CCC[CH2][Sn]1([CH2]CCC)[O]C(=O)C[S]1`, the T/C (dose: 3.0 mg/kg/injection, schedule: Q01DX009 (ip), vehicle: saline with Tween-80) is reported as 125 % of control, the T/C (dose: 3.0 mg/kg/injection, schedule: Q01DX009 (ip), vehicle: saline) is reported as 141 % of control and the T/C (dose: 3.0 mg/kg/injection, schedule: Q04DX003 (ip), vehicle: saline with Tween-80) is reported as 145 % of control. The T/C (dose: 4.5 mg/kg/injection, schedule: Q01DX009 (ip), vehicle: saline with Tween-80) was 145 % of control [5 of 6 alive], the survivor count (dose: 6.25 mg/kg/injection, schedule: Q04DX003 (ip), vehicle: saline with Tween-80) was 4 of 6 and the survivor count (dose: 12.5 mg/kg/injection, schedule: Q04DX003 (ip), vehicle: saline with Tween-80) was 0 of 6. For the same compound, the survivor count (dose: 25.0 mg/kg/injection, schedule: Q04DX003 (ip), vehicle: saline with Tween-80) was 0 of 6, the survivor count [1] was 0 of 6 and the survivor count [2] was 0 of 6. The survivor count [11] was 0 of 6.
With `N=C(N)SCCC(=O)Nc1ccccc1` the survivor count [11] was 0 of 6.
`C[n+]1c(/C=C/c2ccc(N3CCCC3)cc2)sc2ccccc21` was tested, and the survivor count (dose: 12.5 mg/kg/injection, schedule: Q01DX009 (ip), vehicle: saline) was 1 of 6, the survivor count (dose: 50.0 mg/kg/injection, schedule: Q01DX009 (ip), vehicle: saline) was 2 of 6 and the survivor count [10] was 1 of 6. The survivor count [8] was 0 of 6.
For `C[Se]C([Se]C)=C([Se]C)[Se]C`, the survivor count [3] was 4 of 6 and the survivor count [4] was 0 of 6.
For `CC1(C)CC(=O)C=C(Nc2ccc(O)cc2)C1`, the survivor count [12] was 6 of 6 and the survivor count [9] was 6 of 6.
`Cc1ccc2nc(CN(CCN(Cc3nc4ccc(C)cc4[nH]3)Cc3nc4ccc(C)cc4[nH]3)Cc3nc4ccc(C)cc4[nH]3)[nH]c2c1` was tested, and the survivor count (dose: 6.25 mg/kg/injection, schedule: Q01DX005 (ip), vehicle: saline with Tween-80) was 4 of 6, the survivor count (dose: 12.5 mg/kg/injection, schedule: Q01DX005 (ip), vehicle: saline with Tween-80) was 3 of 6 and the survivor count [12] was 0 of 6. The survivor count (dose: 100.0 mg/kg/injection, schedule: Q01DX005 (ip), vehicle: saline with Tween-80) was 0 of 6 and the survivor count [9] was 0 of 6.
`CCC1(CC)CCC(C#N)C1=N` (centres undefined) was tested, and the survivor count (dose: 100.0 mg/kg/injection, schedule: Q01DX001 (ip), vehicle: Klucel (hydroxypropylcellulose) (HPC)) was 0 of 6, the survivor count (dose: 200.0 mg/kg/injection, schedule: Q01DX001 (ip), vehicle: Klucel (hydroxypropylcellulose) (HPC)) was 0 of 6 and the survivor count (dose: 400.0 mg/kg/injection, schedule: Q01DX001 (ip), vehicle: Klucel (hydroxypropylcellulose) (HPC)) was 1 of 6.
With `Cc1ccc(S(=O)(=O)OI(O)c2ccccc2)cc1` the survivor count (dose: 200.0 mg/kg/injection, schedule: Q01DX009 (ip), vehicle: water) was 0 of 6.
With `COc1ccc(CC2C(=O)NC(C)C(=O)N(C)C3C(=O)N(C)C(Cc4ccc(OC)c(c4)Oc4ccc(cc4)C3O)C(=O)NC(C)C(=O)NC(C)C(=O)N2C)cc1` (centres undefined) the T/C (dose: 0.5 mg/kg/injection, schedule: Q01DX009 (ip), vehicle: distilled water + alcohol) was 125 % of control, the T/C (dose: 1.0 mg/kg/injection, schedule: Q01DX009 (ip), vehicle: distilled water + alcohol) was 134 % of control and the survivor count (dose: 2.0 mg/kg/injection, schedule: Q01DX009 (ip), vehicle: distilled water + alcohol) was 2 of 6. For the same compound, the survivor count (dose: 4.0 mg/kg/injection, schedule: Q01DX009 (ip), vehicle: distilled water + alcohol) was 1 of 6.
